# Reference: PubChem BioAssay AID504808 (Drosophila RNAi Screening Center, 2011)
# Test: 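Fly genes required to hold E2F transcription in check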 (primary screen)
# Cells: Drosophila S2 cells
# Knock-down reagent: long dsRNA against Drosophila genes
# Measurement: 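Dual luciferase plate measurements; E2F-specific signal taken as firefly over Renilla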
# Reading the numbers: E2F firefly: higher = more E2F reporter activity; Renilla normaliser: higher = more normaliser reporter signal
# Active means: 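Called active if the normalised E2F reporter went up by over 50%; the cutoff is arbitrary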
# The screen tested about 21,000 reagents; below is an unselected part of those that have a named target and a result. Of all reagents, 18 (0.084%) are marked active. 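Raw counts without plate normalisation, one of two replicates; the ratio scores behind the calls were not deposited.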 Reagents against one gene are numbered here. Names joined by + are all predicted targets of the reagent. Not given: the amount of reagent, the time to read-out.
gene,dsRNA no.,"E2F firefly, rep 1","Renilla normaliser, rep 1",Call
ND-B22,1,1.04e5,4743,inactive
CG42541,1,1.14e5,5318,inactive
CG42541,2,51031,2865,inactive
CG42541,3,1.15e5,5466,inactive
CG32808,1,86631,2504,inactive
Tango5,1,8015,760,inactive
nAChRbeta2,1,65013,4318,inactive
CG7362,1,1.13e5,6328,inactive
IntS2,1,1.79e5,5922,inactive
CG4116,1,1.26e5,6551,inactive
yin,1,1858,920,inactive
CG10959,1,7095,728,inactive
Pef,1,2658,206,inactive
Rpn7,1,55853,4637,inactive
RhoGAP54D,1,1.38e5,4762,inactive
CG15905,1,1.64e5,5393,inactive
CG17271,1,1.37e5,7706,inactive
CG7148,1,86110,4090,inactive
RpL23,1,63445,4423,inactive
Kcmf1,1,57125,3545,inactive
CG8353,1,1.38e5,4596,inactive
Alas,1,78080,3723,inactive
CG31454,1,1.49e5,5967,inactive
CG42715 (retired record),1,1.21e5,4183,inactive
H,1,1.57e5,7190,inactive
CG33757,1,1.42e5,5728,inactive
CG15870,1,1.07e5,4462,inactive
CG14227,1,62084,3895,inactive
rdgC,1,1.30e5,6299,inactive
CG34324,1,1.28e5,6684,inactive
Nep4,1,62526,3235,inactive
Kpc2,1,1.34e5,4886,inactive
CG15203,1,1.29e5,6606,inactive
CG31886,1,85832,4488,inactive
CG16898,1,1.34e5,5222,inactive
rngo,1,56249,3823,inactive
CG32276,1,1.23e5,4610,inactive
vers,1,62466,3745,inactive
CG3698,1,93172,3999,inactive
CG13005,1,1.58e5,6361,inactive
CG32241,1,1.39e5,3735,inactive
CG9988,1,92701,6384,inactive
CG2157,1,1.38e5,5460,inactive
CG9733,1,1.22e5,6815,inactive
CG7810,1,99184,3853,inactive
Naa80,1,1.49e5,5854,inactive
Agpat4,1,1.63e5,7717,inactive
Sf3b5,1,96934,6510,inactive
Ssl,1,1.05e5,3578,inactive
nclb,1,1.38e5,4918,inactive
e(r),1,8590,748,inactive
CG32459,1,1.50e5,7604,inactive
Tsen34 + Trl,1,1.50e5,7630,inactive
Hr38,1,93896,3433,inactive
CG8818,1,2982,129,inactive
Nmdar2,1,1.37e5,5926,inactive
Nmdar2,2,1.18e5,5540,inactive
Nmdar2,3,1.27e5,5627,inactive

5 consecutive entries from above:
gene,dsRNA no.,"E2F firefly, rep 1","Renilla normaliser, rep 1",Call
Naa80,1,1.49e5,5854,inactive
Agpat4,1,1.63e5,7717,inactive
Sf3b5,1,96934,6510,inactive
Ssl,1,1.05e5,3578,inactive
nclb,1,1.38e5,4918,inactive
